## Primary screen of a compound library

Data taken from ChEMBL document CHEMBL3988442, “University of Dundee, Small-Polar-MMV Screening Library” (2021).

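Viability assay of Plasmodium falciparum sporozoites; the read-out is not stated. The concentration is filed as 10 mM, unlikely as a test dose, so the dose is not known. Direction is inferred from retests: higher values go with lower viability. Strong results were mostly tested again. About 34,000 compounds were tested under these conditions; 0.84% (about 280) showed 50% or more at least once.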

Results are given as percent effect. The controls that fix the scale are not given in the record; negative values are as filed. This is an unselected part of the compounds tested. Two or more numbers in one place are separate tests of the same structure; such repeats can differ widely.

Compound,effect
Cc1nc(CN2CCCC(Cn3cc(CCO)nn3)C2)c2ccccn12 (stereo not shown),-5.843%
COCCCNc1nc(CNC(=O)C2CCC2)cc(-c2ccco2)n1,-6.181%
CN(C)C1CC2(CCN(C(=O)C3(C#N)CC3)CC2)c2ccccc21.O=C(O)C(F)(F)F (stereo not shown),3.322%
O=C(C1CC1)N1CCC2(CC1)OCCO2,-1.917%
CCN(CC)C1CCN(C(=O)c2cc(CC(C)C)nn2CC)C1 (stereo not shown),-8.166%
COc1ccc(NC(=O)N2CCCC2c2ccncc2)cn1 (stereo not shown),-1.561%
O=C(Cc1csc(N2CCNC2=O)n1)NCC1(c2ccccc2)CC1,6.039%
Cn1nc(CN2CCCCC2)c2c1CN(C(=O)c1cccc(C#N)c1)C2.O=C(O)C(F)(F)F,4.579%
CN(C)S(=O)(=O)N1CCN(Cc2ccnc(N3CCCC3)n2)CC1,6.673%
CCNc1nc(-c2cccnc2)c(-c2ccnc(NS(C)(=O)=O)n2)s1,4.657%
COCCC(=O)N1CCC2(CC1)CN(S(C)(=O)=O)Cc1ccccc1O2,0.3121%
[H][C@@]12C[C@H](C(=O)N3CCCC3)[C@@]([H])(CN(C(=O)Nc3ccc(CC)cc3)C1)O2,3.682%
COCC(=O)N1CCc2nc(NC(C)C)nc(NC(C)C)c2CC1,12.07%
Cc1nn(C)c(C)c1C1CCCN1CC(=O)NCc1ccco1 (stereo not shown),5.86%
CC(C)CCNC(=O)c1csc(NC2CC2)n1,57.49% and -65.76% and -51.76%
Cc1ccc(CN2CCC3(CC2)NC(=O)CC3c2ccncc2)cc1C.O=C(O)C(F)(F)F.O=C(O)C(F)(F)F (stereo not shown),-7.786%
COc1cccc(-n2nnc(C(=O)N3CCCCCC3)c2C)c1,5.568%
O=C(O)C(F)(F)F.[H][C@@]12CCN(Cc3ccc4c(c3)OCO4)C[C@]1([H])O[C@@H](C(=O)NCC1CC1)C2,-230.9%
CCc1ccccc1C(=O)N1CCN(S(C)(=O)=O)[C@@H](C)C1,6.257%
Cc1cc(CN2CCCCC2Cn2cncn2)no1 (stereo not shown),3.461%
Cc1nc(C)n(C2CCCN(C(=O)Cc3csc(C(C)C)n3)C2)n1 (stereo not shown),4.829%
Cc1nc[nH]c1CN1CCCN(c2nc3ccccc3s2)CC1,2.478% and -18.14%
O=C(Nc1nncs1)NC1CCCc2c1cnn2CCO (stereo not shown),-2.941%
Cc1cccc(C(=O)NC(C)CN2CCCC2=O)n1 (stereo not shown),-0.0331%
CCN(c1ccc(C(=O)N2CCCC2)cc1)S(=O)(=O)CC,-13.21%
CCn1ccnc1CN1CCCN(C(=O)Cc2csc(C)n2)CC1,7.495%
CS(=O)(=O)Cc1ccc(C(=O)NC2CCc3nccn3C2)o1 (stereo not shown),6.72%
O=C(Cc1ccccn1)N1CCc2c(O)nc(-c3cnccn3)nc2C1,6.542%
CC(C)c1nc(O)c2nnn(C[C@H]3CCCN(Cc4ccsc4)C3)c2n1,8.951%
Cc1ccc(CN2CCCC(c3nnc(CN4CCCCC4)n3C)C2)s1 (stereo not shown),-2.544%
CC(=O)N(C)c1nc(CN2CCCCC2Cn2cncn2)cs1 (stereo not shown),5.887%
Cc1ccc(C(=O)N2CCCCC2CNC(N)=O)s1 (stereo not shown),-6.094%
CNCC[C@H]1CC(C)(C)Oc2ccc(OCC3CC3)cc21,12.45%
CCc1ccc(NS(=O)(=O)c2cc3c(c(C(=O)O)c2)OCCO3)cc1,-1.75%
CC(C)N(C)[C@@H]1CCN(S(C)(=O)=O)[C@H]1Cc1ccccc1,3.466%
COCCN1CCC12CCN(C(=O)c1ccc(C)nc1)C2.O=C(O)C(F)(F)F (stereo not shown),6.414%
CCn1nc(C)cc1C(=O)OCC1CC(=O)N(Cc2ccccc2)C1 (stereo not shown),-0.08651%
O=C1CCCN1CCC1CCN(C2CCCNC2)CC1 (stereo not shown),6.14%
O=C(O)C(F)(F)F.[H][C@@]12CCC(=O)N(c3cnn(C)c3)[C@]1([H])CCN2Cc1nccs1,3.541%
Cc1cccc(CN2CCOCC3(CCN(C4CCOCC4)C3)C2)n1.O=C(O)C(F)(F)F.O=C(O)C(F)(F)F.O=C(O)C(F)(F)F (stereo not shown),-8.759%
O=S(=O)(Nc1cnn(C2CCOCC2)c1)c1ccc(F)c(F)c1,-7.486%
COc1cccc2c1OCC(C(=O)N1CCC(N3CCSCC3)CC1)C2 (stereo not shown),-59.56%
Cc1ncoc1C(=O)N1CCn2c(COCC3CC3)cnc2C1C (stereo not shown),-15.77%
c1c(CN2CCOCC2)nc2n1CCN(CC1CC1)C2,18.2%
Cc1cc(C)cc(C2(C(=O)N3CCCC(n4cncn4)C3)CC2)c1 (stereo not shown),6.433%
CCN(CC)Cc1nc2c(o1)CN(S(=O)(=O)c1cccs1)C2.O=C(O)C(F)(F)F,-4.219%
O=C(O)C(F)(F)F.O=c1cc(CNS(=O)(=O)C2CC2)nc2n1CCCN(CC1CC1)C2,-6.414%
O=C(NCc1ccncc1)N(Cc1ccccc1F)C1CC1,1.288%
O=C(C1CCCC1)N1CCCC(c2cccc(-n3ccnc3)n2)C1 (stereo not shown),4.854%
O=C(O)C(F)(F)F.O=C(O)C(F)(F)F.O=C(O)C(F)(F)F.O=C(O)C(F)(F)F.[H][C@@]12CN(Cc3ccccn3)C[C@]1([H])OCCN2CCN(C)C,-4.306% and -4.374%
COc1ccc(C[C@H]2CN(C(=O)c3ccncc3)CC[C@@H]2OC)cc1.O=C(O)C(F)(F)F,-5.762%
O=C(c1ccc(Cl)o1)N1CCCN(Cc2cscn2)CC1,-2.543%
Cn1nccc1C1CCN(CC(O)c2cccc(F)c2)CC1 (stereo not shown),1.562%
[H][C@]12OCCN(Cc3ccc(C)o3)[C@@]1([H])CC[C@@H]2OCc1cccnc1,3.327%
COc1cc(OC)cc(C(=O)N(C)Cc2nnc3ccccn23)c1,0.4422%
Cc1nc(CN2CCN(Cc3ccoc3)Cc3cccnc32)cs1.O=C(O)C(F)(F)F.O=C(O)C(F)(F)F.O=C(O)C(F)(F)F,-1.23%
Cc1cc(NC(=O)NCC2CCN(C(C)C)C2)no1 (stereo not shown),12.09%
COC(=O)CCCNC(=O)Nc1ccccc1OC,10.32%
Cc1ccn2cc(C(=O)N3CCCC3c3c(C)nn(C)c3C)nc2c1 (stereo not shown),0.2387%
Cc1ncsc1C(=O)N1CCCC1c1c(C)nn(C)c1Cl (stereo not shown),6.321%
Cc1cc(-n2cnnn2)n2ncnc2n1,3.158%
CCOc1ccc(CC(=O)N2CCN(c3nccn3C)CC2)cc1.Cl,-1.229%
CN(C)Cc1nc(-n2cnc(C(=O)NC3CCCC3)c2)n2ccccc12,19.95%
CC(=O)Nc1ccc(CNc2cccc(CS(C)(=O)=O)c2)cc1,-10.04%
Cc1ccc2c(c1)C(NC(=O)N(C)C)CC21CCN(C(C)C)CC1.O=C(O)C(F)(F)F (stereo not shown),7.926%
Cc1nccn1CC1CCCN1S(=O)(=O)Cc1ccon1 (stereo not shown),9.786%
CCOC(=O)N1CC(=O)N(Cc2ccc(OC)cc2)CC(O)C1 (stereo not shown),13.35%
CCC(O)CN1CCN(C(=O)c2ccn(C)c(=O)c2)CC1 (stereo not shown),41.32% and -2.967% and -2.774%
Cc1cnn(CC2CCCCN2Cc2nnc(C3CC3)n2C)c1 (stereo not shown),-10.98%
CC(C)c1noc(CCCC(=O)NC2CCS(=O)(=O)C2)n1 (stereo not shown),-8.824%
NC(=O)CN1CCCN(C(=O)Cc2cccc(C(F)(F)F)c2)CC1,12.68%
CCOc1cc(C)nc(N2CCN(C(=O)c3ccncc3)CC2)n1,9.187%
NC(=O)NCC1CCCCN1C(=O)c1cccc(C(F)(F)F)c1 (stereo not shown),15.89%
Cc1nn(-c2ccccc2)cc1C(=O)N1CCCN2CCCC2C1 (stereo not shown),-6.127%
O=C(c1ccc(F)c(F)c1)N1CCCC(Nc2ccc(F)cc2)C1 (stereo not shown),-10%
[H][C@]12CN(Cc3cccc(F)c3F)C[C@]1([H])N(C1CCOCC1)C(=O)CO2,5.266%
CC(CNS(C)(=O)=O)Oc1cccc(Cl)c1 (stereo not shown),-13.47%
Cn1nc(CN2CCCC2)c2c1CN(c1cnccn1)CC2.O=C(O)C(F)(F)F.O=C(O)C(F)(F)F,6.48%
CCc1nc(C2CCCN2CCS(=O)(=O)c2ccccc2)no1 (stereo not shown),-9.085%
CCc1nc(C2CCCN2C(=O)c2ccc3c(c2)COC3)no1 (stereo not shown),3.615%
O=C(O)C(F)(F)F.[H][C@]12CCC[C@@]1(COc1ccccn1)CN(C(=O)c1ncccn1)C2,1.217%
Cc1ccc(S(=O)(=O)n2ccn(C(=O)COc3ccccc3)c2=O)cc1,-4.995%
O=C(NCc1ccc(OCC2CC2)nc1)c1c(F)cccc1F,-7.103%
Cc1ccc(C(=O)NS(=O)(=O)c2ccccc2Br)c(=O)[nH]1,6.882%
O=C1CC2(CCCCN2C(=O)c2ccoc2)CN1Cc1ccccc1 (stereo not shown),7.015%

Repeated from the top, 10 entries:

* Cc1nc(CN2CCCC(Cn3cc(CCO)nn3)C2)c2ccccn12 (stereo not shown) | -5.843%
* COCCCNc1nc(CNC(=O)C2CCC2)cc(-c2ccco2)n1 | -6.181%
* CN(C)C1CC2(CCN(C(=O)C3(C#N)CC3)CC2)c2ccccc21.O=C(O)C(F)(F)F (stereo not shown) | 3.322%
* O=C(C1CC1)N1CCC2(CC1)OCCO2 | -1.917%
* CCN(CC)C1CCN(C(=O)c2cc(CC(C)C)nn2CC)C1 (stereo not shown) | -8.166%
* COc1ccc(NC(=O)N2CCCC2c2ccncc2)cn1 (stereo not shown) | -1.561%
* O=C(Cc1csc(N2CCNC2=O)n1)NCC1(c2ccccc2)CC1 | 6.039%
* Cn1nc(CN2CCCCC2)c2c1CN(C(=O)c1cccc(C#N)c1)C2.O=C(O)C(F)(F)F | 4.579%
* CN(C)S(=O)(=O)N1CCN(Cc2ccnc(N3CCCC3)n2)CC1 | 6.673%
* CCNc1nc(-c2cccnc2)c(-c2ccnc(NS(C)(=O)=O)n2)s1 | 4.657%